Test [1] has as its target GSTπ (human (endogenous in MDA-MB-436 and MCF-7)) (UniProt P09211). Nature of the test: condition: only in HBXIP/Nrf2 knock-down cells (Prdx1 downregulated); co-IP; cellular protein extracts of ECM-detached HBXIP/Nrf2 knock-down breast cancer cells (Prdx1 downregulated; with or without NAC) immunoprecipitated with an anti-GSTπ antibody; JNK1 and Prdx1 detected by western blotting. For orientation: A western blot detects proteins with antibodies after separation by electrophoresis.

Protein sequences, listed by entry. Tags and fused reporters are not part of them.
UniProt P09211: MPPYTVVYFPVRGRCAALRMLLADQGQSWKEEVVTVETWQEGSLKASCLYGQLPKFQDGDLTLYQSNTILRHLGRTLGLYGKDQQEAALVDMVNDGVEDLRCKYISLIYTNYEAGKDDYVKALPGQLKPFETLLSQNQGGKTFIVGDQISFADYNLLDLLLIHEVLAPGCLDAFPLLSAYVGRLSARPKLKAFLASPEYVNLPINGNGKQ
UniProt P45983: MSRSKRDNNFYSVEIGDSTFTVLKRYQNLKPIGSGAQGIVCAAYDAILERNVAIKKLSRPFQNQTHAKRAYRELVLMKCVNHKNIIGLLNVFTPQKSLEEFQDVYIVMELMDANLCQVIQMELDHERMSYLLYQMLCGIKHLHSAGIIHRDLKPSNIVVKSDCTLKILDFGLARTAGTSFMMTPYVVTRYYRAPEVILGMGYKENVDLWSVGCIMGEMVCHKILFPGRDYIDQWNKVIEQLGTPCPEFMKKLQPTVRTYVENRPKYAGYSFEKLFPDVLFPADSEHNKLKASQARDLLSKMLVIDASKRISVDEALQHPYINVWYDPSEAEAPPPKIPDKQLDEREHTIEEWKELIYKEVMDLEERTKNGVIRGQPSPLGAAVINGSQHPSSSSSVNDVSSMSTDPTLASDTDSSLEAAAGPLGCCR

For test [2] the target is unchanged. The test is described as follows: co-IP; cellular protein extracts of ECM-detached stable MDA-MB-436 and MCF-7 cell lines (control, HBXIP/Nrf2 overexpression, HBXIP or Nrf2 overexpression in HBXIP/Nrf2 KD cells; with or without H2O2 or NAC) immunoprecipitated with an anti-GSTπ antibody; goat IgG as negative control; JNK1 and Prdx1 detected by western blotting.

No constants are given. Whether binding was seen depends on the method and setting. In cells and extracts the contact can be indirect. Some results given as binding are weak or reduced against the parent protein; the word gives no strength.

For the molecule JNK1 (from UniProt P45983 1-427), the binding entry is “no binding” in test [1] and “binds” in test [2].

B1: peroxiredoxin 1 (Prdx1) (protein, UniProt Q06830 1-199)
chain: MSSGNAKIGHPAPNFKATAVMPDGQFKDISLSDYKGKYVVFFFYPLDFTFVCPTEIIAFSDRAEEFKKLNCQVIGASVDSHFCHLAWVNTPKKQGGLGPMNIPLVSDPKRTIAQDYGVLKADEGISFRGLFIIDDKGILRQITVNDLPVGRSVDETLRLVQAFQFTDKHGEVCPAGWKPGSDTIKPDVQKSKEYFSKQK
As to B1, the binding result in test [2] was “binds”.
